Source: publication PMC6546725

How the values were obtained:
Assay in all cases: EMSA
Conditions in all cases: 20 mM Tris pH 8.0, 10 mM NaCl, 2 mM EDTA, 2 mM DTT, 10% glycerol, 100 ng poly(dI-dC), 375 ng protein, 0.2 ng probe, 20 ul, room temperature 30 min; 6% native gel; recombinant protein; protein details: His (pET300/NT-DEST); label: 32P end label
PgMYB5 (Picea glauca) = test system: PgMYB5 (Picea glauca)
PgMYB12 (Picea glauca) = test system: PgMYB12 (Picea glauca)
PgMYB13 (Picea glauca) = test system: PgMYB13 (Picea glauca)
PgMYB22 (Picea glauca) = test system: PgMYB22 (Picea glauca)

**Q.** Does “GATCCTTTATACCCACCTACCAGACACG (double strand) [canonical AC-I]” bind (PgMYB5 (Picea glauca))?
**A.** Result: no binding

**Q.** Does “GATCCTTTATACCCACCTACCAGACACG (double strand) [canonical AC-I]” bind (PgMYB12 (Picea glauca))?
**A.** Result: binds

**Q.** Does “GATCCTTTATACCCACCTACCAGACACG (double strand) [canonical AC-I]” bind (PgMYB13 (Picea glauca))?
**A.** Result: no binding

**Q.** Does “GATCCTTTATACCCACCTACCAGACACG (double strand) [canonical AC-I]” bind (PgMYB22 (Picea glauca))?
**A.** Result: no binding

**Q.** Does “GGTAAATACCTCCCGCAGCTACCATAATAT (double strand) [CesA -940 to -911 (AC-I like)]” bind (PgMYB5 (Picea glauca))?
**A.** Result: no binding

**Q.** Does “GGTAAATACCTCCCGCAGCTACCATAATAT (double strand) [CesA -940 to -911 (AC-I like)]” bind (PgMYB12 (Picea glauca))?
**A.** Result: binds

**Q.** Does “GGTAAATACCTCCCGCAGCTACCATAATAT (double strand) [CesA -940 to -911 (AC-I like)]” bind (PgMYB13 (Picea glauca))?
**A.** Result: no binding

**Q.** Does “GGTAAATACCTCCCGCAGCTACCATAATAT (double strand) [CesA -940 to -911 (AC-I like)]” bind (PgMYB22 (Picea glauca))?
**A.** Result: no binding

**Q.** Does “GGTAAATAGGTGGGGCAGGTAGGATAATAT (double strand) [mCesA -940 to -911 (mAC-I like)]” bind (PgMYB12 (Picea glauca))?
**A.** Result: no binding

The exact form of at least one protein or probe is not confirmed. Negatives hold for the conditions tested. For part of these data: At least one verdict was read from the data and is not stated in words by the source.
